According to patent US4008267A, “3,3'-Di(sulfonyloxy-group-containing)substituted benzidine derivatives” (AB Kabi, priority 1974, dated 1977):

Key:
[1] = Discoloration of / absorption by analyzer tubing immersed in chromogen reagent; conditions: tubing immersed for 25 hours in reagent composition
[2] = Color development of chromogen-reactive-indicator composition with glucose stock solutions (glucose oxidase/peroxidase)
[3] = room temperature; background; cited from earlier work
[4] = 25° C, 450 nm (o-tolidine 430 nm), pH value 6.5
[5] = 37° C, 450 nm (o-tolidine 430 nm), pH value 6.5

| Structure (SMILES) | Discoloration of tube samples [1] | Maximum color development at 450 nm ([2]; 0.2 mM chromogen, 25° C) [min] | Maximum color development at 450 nm ([2]; 0.2 mM chromogen, 37° C) [min] | Time for color development in minutes, 25° C [2, 4] [min] | Time for color development in minutes, 37° C [2, 5] [min] | Maximum color development at 430 to 450 nm ([2]; 0.2 mM chromogen, 430 to 450 nm, 25° C) [min] | Color development time [3] [min] | Time for color development in minutes, 25° C ([2]; 25° C, 630 nm, pH value 4.5) [min] | Time for color development in minutes, 37° C ([2]; 37° C, 630 nm, pH value 4.5) [min] |
| --- | --- | --- | --- | --- | --- | --- | --- | --- | --- |
| Cl.Cl.Nc1ccc(-c2ccc(N)c(OCCCC(=O)O)c2)cc1OCCCC(=O)O [Example 1(d), Gamma, gamma'-(4,4'-diamino-3,3'-biphenyldioxy)dibutyric acid dihydrochloride] | remained colorless | ≤ 25 | ≤ 15 | 25 | 15 |  |  |  |  |
| Nc1ccc(-c2ccc(N)c(OCCCS(=O)(=O)O)c2)cc1OCCCS(=O)(=O)O [Example 3(b), Gamma,gamma'-(4,4'-diamino-3,3'-biphenyldioxy)dipropane sulfonic acid] |  |  |  | 25 | 15 | ≤ 25 |  |  |  |
| COc1cc(-c2ccc(N)c(OC)c2)ccc1N [o-dianisidine] | turned brown |  |  | 50 | 35 |  | 50 to 60 |  |  |
| Cc1cc(-c2ccc(N)c(C)c2)ccc1N [o-tolidine] |  |  |  | 60 | 45 |  | 50 to 60 | 10 | 6 |
